Reference: paper PMC3724861

Biological target: T1, Caup homeodomain (Drosophila melanogaster) (UniProt P54269)
T1 sequence (looked up): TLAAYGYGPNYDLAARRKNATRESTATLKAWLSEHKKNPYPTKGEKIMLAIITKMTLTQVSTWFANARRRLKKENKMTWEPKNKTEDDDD
Test: binding assay
Details: PBM, protein translated in vitro, residues 214-303, only the motif is given

Work on “AAACGCCAT (double strand) [9-mer AAACGCCAT]” yielded a binding signal (minimum E-score of the two 8-mers) of -0.015.
Sequence “AATTTTAGA (double strand) [9-mer AATTTTAGA]” has a binding signal (minimum E-score of the two 8-mers) of 0.
With “ACAGGCAAC (double strand) [9-mer ACAGGCAAC]” the binding signal (minimum E-score of the two 8-mers) was -0.03.
“AGGGGTGGG (double strand) [9-mer AGGGGTGGG]” gave a binding signal (minimum E-score of the two 8-mers) (counted as no binding) of -0.155.
With “CACAGACGG (double strand) [9-mer CACAGACGG]” the binding signal (minimum E-score of the two 8-mers) was -0.044.
“CCTACGTTC (double strand) [9-mer CCTACGTTC]” gave a binding signal (minimum E-score of the two 8-mers) of -0.119.
Sequence “CGATGCTTC (double strand) [9-mer CGATGCTTC]” has a binding signal (minimum E-score of the two 8-mers) of -0.073.
“CGGAGCTGC (double strand) [9-mer CGGAGCTGC]” showed a binding signal (minimum E-score of the two 8-mers) (counted as no binding) of -0.245.
With “CGTCAGCCA (double strand) [9-mer CGTCAGCCA]” the binding signal (minimum E-score of the two 8-mers) was -0.088.
“GACCTGTGA (double strand) [9-mer GACCTGTGA]” gave a binding signal (minimum E-score of the two 8-mers) of -0.058.
“GGAAGTGCC (double strand) [9-mer GGAAGTGCC]” showed a binding signal (minimum E-score of the two 8-mers) (counted as no binding) of -0.177.
Work on “GGCCCCCCA (double strand) [9-mer GGCCCCCCA]” yielded a binding signal (minimum E-score of the two 8-mers) (counted as no binding) of -0.448.
“GGCCGAACC (double strand) [9-mer GGCCGAACC]” was tested, and the binding signal (minimum E-score of the two 8-mers) (counted as no binding) was -0.204.
“GTGGCACGA (double strand) [9-mer GTGGCACGA]” gave a binding signal (minimum E-score of the two 8-mers) (counted as no binding) of -0.136.
Sequence “TCCCCATAA (double strand) [9-mer TCCCCATAA]” has a binding signal (minimum E-score of the two 8-mers) of -0.104.

Whether high values mean tight binding is not given here for every scale. Protein sequences can lack the tags named with them.
